PMC5570423, “Structural characterisation of TNRC6A nuclear localisation signal in complex with importin-alpha” (PLoS ONE, 2017)
Results are given in words; binding and its absence hold for the method and conditions named. Sequences can lack the tags named with a protein.

Amino acid sequences for entries named in this document (tags omitted).
UniProt Q14974: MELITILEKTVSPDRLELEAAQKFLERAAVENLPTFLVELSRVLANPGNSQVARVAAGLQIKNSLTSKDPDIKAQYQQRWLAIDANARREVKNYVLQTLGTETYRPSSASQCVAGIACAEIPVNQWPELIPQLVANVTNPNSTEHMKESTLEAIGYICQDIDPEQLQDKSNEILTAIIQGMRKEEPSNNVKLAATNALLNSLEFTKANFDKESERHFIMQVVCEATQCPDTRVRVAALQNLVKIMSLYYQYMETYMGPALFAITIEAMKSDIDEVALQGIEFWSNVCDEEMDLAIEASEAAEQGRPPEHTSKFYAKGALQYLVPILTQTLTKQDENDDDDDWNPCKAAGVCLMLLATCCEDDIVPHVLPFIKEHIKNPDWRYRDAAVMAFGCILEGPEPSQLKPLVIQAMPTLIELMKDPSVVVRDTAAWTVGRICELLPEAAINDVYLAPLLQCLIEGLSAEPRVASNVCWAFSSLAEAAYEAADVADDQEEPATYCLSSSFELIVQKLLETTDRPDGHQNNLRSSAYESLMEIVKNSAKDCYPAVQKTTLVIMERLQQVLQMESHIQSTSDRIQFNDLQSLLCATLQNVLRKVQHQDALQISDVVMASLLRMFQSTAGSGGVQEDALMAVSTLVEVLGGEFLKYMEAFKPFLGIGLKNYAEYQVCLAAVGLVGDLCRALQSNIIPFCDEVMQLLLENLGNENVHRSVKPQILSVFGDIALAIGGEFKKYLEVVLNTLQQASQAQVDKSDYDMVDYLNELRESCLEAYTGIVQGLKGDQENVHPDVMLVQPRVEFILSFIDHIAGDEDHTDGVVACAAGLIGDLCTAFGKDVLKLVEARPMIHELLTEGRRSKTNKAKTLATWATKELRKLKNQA
UniProt P70168: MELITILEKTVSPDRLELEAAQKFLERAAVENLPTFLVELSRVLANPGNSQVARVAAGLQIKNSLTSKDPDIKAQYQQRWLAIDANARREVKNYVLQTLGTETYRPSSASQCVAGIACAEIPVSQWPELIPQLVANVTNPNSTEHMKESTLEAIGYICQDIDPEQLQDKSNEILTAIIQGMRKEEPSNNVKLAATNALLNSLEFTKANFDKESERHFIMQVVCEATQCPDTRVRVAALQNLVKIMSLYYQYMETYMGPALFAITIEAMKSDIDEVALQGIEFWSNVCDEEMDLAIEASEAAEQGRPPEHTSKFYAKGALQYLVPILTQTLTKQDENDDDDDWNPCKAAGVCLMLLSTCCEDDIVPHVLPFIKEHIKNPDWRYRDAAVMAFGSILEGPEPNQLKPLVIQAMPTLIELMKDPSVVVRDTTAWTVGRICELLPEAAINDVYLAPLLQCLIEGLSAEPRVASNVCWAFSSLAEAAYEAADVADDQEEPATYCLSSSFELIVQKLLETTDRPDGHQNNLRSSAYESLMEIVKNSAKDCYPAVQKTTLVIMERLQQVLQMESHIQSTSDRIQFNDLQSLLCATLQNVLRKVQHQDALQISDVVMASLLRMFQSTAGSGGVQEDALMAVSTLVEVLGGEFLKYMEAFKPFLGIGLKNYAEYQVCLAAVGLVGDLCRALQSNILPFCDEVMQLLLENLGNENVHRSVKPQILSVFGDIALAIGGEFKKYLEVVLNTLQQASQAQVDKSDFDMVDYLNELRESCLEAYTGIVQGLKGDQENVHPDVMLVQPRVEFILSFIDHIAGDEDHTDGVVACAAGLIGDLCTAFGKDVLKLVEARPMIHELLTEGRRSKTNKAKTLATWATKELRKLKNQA

Molecular target: T1, GST-TNRC6A cNLS (residues 1164–1172 of mouse TNRC6A, corresponding to residues 1179–1187 of human TNRC6A isoform 1) (mouse)
T1 sequence: SGKKRRRER
Assay: pull-down; GST pull-down: glutathione resin with 100 μg purified GST-cNLS or GST and 250 μg ImpA or 500 μg ImpB, 4°C, 1 hr; 20 mM Tris pH 7.5, […] NaCl, 1 mM DTT; eluted with 10 mM glutathione; SDS-PAGE; both purified

Substance	binding
Human importin-β (His-tagged) (from UniProt Q14974 1-876)	no binding (tested: 500 μg of ImpB with 100 μg GST-cNLS)
Mouse importin-β (His-tagged) (from UniProt P70168 1-876)	no binding (tested: 500 μg of ImpB with 100 μg GST-cNLS)
